Assay results: publication PMC7541494
These are yes or no findings as the source states them, for the method shown. Some binding calls cover weakened binding; strength is not graded here. Tags and fused reporters may be left off the sequences shown.

Target: PilA, major pilin, mature full-length, fused to T18 or T25 (BACTH) (M. xanthus) (UniProt Q59589)
Assay: two-hybrid; Bacterial Two-Hybrid (BACTH, Euromedex) in E. coli BTH101; T18 and T25 CyaA fragment fusions; blue colour on X-gal/IPTG plates and relative β-galactosidase activity, four clones a pair

B1: PilA, major pilin, mature full-length, fused to T18 or T25 (BACTH) (protein, UniProt Q59589 13-220)
chain: FTLIELMIVVAIIGILAAIAIPNFIKFQARSKQSEAKTNLKALYTAQKSFFSEKDRYSDFANEIGFAPERGNRYGYRVSAAAGDCEVRNAADLPVPAAGVPCISNDSFRFGANSAIDDPTPVVARFVPQGAAGWNTTLGVQPTIADCPNCNFFAGARGNADNEATFDDWVIAGFEGSGQVGPCSEAGNVASGTPYNTRNDVACDGAAQ
binding: binds
